According to patent publication US12508248B2, “Therapeutic agent for prototheca disease” (priority 2019, dated 2025):
For at least one compound, name, drawing or mass did not settle the structure.

What was measured:
[1] = tested on: several strains of Prototheca wickerhamii and Prototheca zopfii; settings: previous study on susceptibility, Non-Patent Document 1; cited from earlier work
[2] = tested on: Prototheca zopfii Genotype 1; assay: Broth microdilution MIC assay, CLSI M27-A3 guideline; assay type: cell-based; settings: summary over 11 isolates of Genotype 1
Procedure: (§1) For Prototheca wickerhamii, isolates (1 cat strain and 2 dog strains) were obtained from dogs and cats suffering from a prototheca disease. For Prototheca zopfii, bovine prototheca mastitis isolates (Genotype 2, 10 strains) and environmental isolates (Genotype 1, 10 strains) were obtained. For Prototheca blaskeae, a prototheca mastitis isolate (1 strain) was obtained. For Prototheca zopfii, the drug susceptibility was tested also on Genotype 1 established strain (SAG20063^T) and Genotype 2 established strain (SAG2021^T).
(§2) The isolates were maintained on Yeast Extract-Peptone-Dextrose agar (YPD: 1% yeast extract, 2% peptone, 2% dextrose, 2% agar) and tested for antifungal susceptibility. The susceptibility of the isolates to the antifungal agents itraconazole (ITZ, Merck KGA) and ravuconazole (RVZ, selenium pharma) was measured using a trace liquid dilution method (broth microdilution assay) according to the CLSI M27-A3 guideline. The minimum inhibitory concentration (MIC) was measured after culturing at 32 degrees for 72 hours. MIC was defined as the lowest concentration that induces significant inhibition of growth (inhibition of about 50% or more). As a control, Candida parapsilosis ATCC 22019 obtained from ATCC was used, and the MIC assay of the CLSI M27-A3 test was performed.

[3] = tested on: Prototheca zopfii Genotype 2; assay: as above; assay type: cell-based; settings: summary over 11 isolates of Genotype 2
Procedure: as §1, §2

Prototheca wickerhamii = assay: as above; assay type: cell-based; settings: summary over three clinical isolates
Procedure: as §1, §2

Row | Structure (SMILES) | effectiveness against several strains of Prototheca wickerhamii and Prototheca zopfii [1] | MIC of 11 isolates of Genotype 1 of Prototheca zopfii [2] | MIC of 11 isolates of Genotype 2 of Prototheca zopfii [3] | MIC of the three clinical isolates of Prototheca wickerhamii (Prototheca wickerhamii)
1 | CCC(C)n1ncn(-c2ccc(N3CCN(c4ccc(OCC5COC(Cn6cncn6)(c6ccc(Cl)cc6Cl)O5)cc4)CC3)cc2)c1=O (centres unmarked) [ITZ, itraconazole] | not effective | 0.25 to >32 | 4 to >32 | 4 to >32
2 | NC[C@H]1O[C@H](O[C@H]2[C@H](O)[C@@H](O[C@H]3O[C@H](CO)[C@@H](O)[C@H](N)[C@H]3O)[C@H](N)C[C@@H]2N)[C@H](O)[C@@H](O)[C@@H]1O [kanamycin] | not effective |  |  | 
